Source: ChEMBL document CHEMBL3621100, “Discovery of Novel Class I Histone Deacetylase Inhibitors with Promising in Vitro and in Vivo Antitumor Activities” (J Med Chem, 2015)

Amino acid sequences for entries named in this document (tags omitted). A change or cut given only in a name is not applied to a line headed by its entry.
UniProt O15379: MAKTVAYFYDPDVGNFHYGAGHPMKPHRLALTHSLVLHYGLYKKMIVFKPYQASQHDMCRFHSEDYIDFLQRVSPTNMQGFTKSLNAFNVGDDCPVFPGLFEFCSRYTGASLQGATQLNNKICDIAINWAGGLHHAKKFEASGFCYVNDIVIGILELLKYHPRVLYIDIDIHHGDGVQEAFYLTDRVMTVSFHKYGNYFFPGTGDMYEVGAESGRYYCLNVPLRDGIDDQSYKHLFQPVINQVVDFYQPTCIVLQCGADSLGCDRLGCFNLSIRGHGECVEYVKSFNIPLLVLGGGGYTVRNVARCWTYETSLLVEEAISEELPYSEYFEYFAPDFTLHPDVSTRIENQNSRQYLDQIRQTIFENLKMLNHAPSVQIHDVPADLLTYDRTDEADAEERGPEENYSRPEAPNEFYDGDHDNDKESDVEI

Experiments:
Histone deacetylase 3 = Histone deacetylase 3 (Homo sapiens, UniProt O15379); assay: Inhibition of recombinant human HDAC3 after 60 mins by fluorescence assay
[1] = molecular target: T1, Protein deacetylase HDAC6 (Homo sapiens, UniProt Q9UBN7); assay: Inhibition of recombinant human HDAC6 after 60 mins by fluorescence assay
T1 sequence (Q9UBN7 whole entry): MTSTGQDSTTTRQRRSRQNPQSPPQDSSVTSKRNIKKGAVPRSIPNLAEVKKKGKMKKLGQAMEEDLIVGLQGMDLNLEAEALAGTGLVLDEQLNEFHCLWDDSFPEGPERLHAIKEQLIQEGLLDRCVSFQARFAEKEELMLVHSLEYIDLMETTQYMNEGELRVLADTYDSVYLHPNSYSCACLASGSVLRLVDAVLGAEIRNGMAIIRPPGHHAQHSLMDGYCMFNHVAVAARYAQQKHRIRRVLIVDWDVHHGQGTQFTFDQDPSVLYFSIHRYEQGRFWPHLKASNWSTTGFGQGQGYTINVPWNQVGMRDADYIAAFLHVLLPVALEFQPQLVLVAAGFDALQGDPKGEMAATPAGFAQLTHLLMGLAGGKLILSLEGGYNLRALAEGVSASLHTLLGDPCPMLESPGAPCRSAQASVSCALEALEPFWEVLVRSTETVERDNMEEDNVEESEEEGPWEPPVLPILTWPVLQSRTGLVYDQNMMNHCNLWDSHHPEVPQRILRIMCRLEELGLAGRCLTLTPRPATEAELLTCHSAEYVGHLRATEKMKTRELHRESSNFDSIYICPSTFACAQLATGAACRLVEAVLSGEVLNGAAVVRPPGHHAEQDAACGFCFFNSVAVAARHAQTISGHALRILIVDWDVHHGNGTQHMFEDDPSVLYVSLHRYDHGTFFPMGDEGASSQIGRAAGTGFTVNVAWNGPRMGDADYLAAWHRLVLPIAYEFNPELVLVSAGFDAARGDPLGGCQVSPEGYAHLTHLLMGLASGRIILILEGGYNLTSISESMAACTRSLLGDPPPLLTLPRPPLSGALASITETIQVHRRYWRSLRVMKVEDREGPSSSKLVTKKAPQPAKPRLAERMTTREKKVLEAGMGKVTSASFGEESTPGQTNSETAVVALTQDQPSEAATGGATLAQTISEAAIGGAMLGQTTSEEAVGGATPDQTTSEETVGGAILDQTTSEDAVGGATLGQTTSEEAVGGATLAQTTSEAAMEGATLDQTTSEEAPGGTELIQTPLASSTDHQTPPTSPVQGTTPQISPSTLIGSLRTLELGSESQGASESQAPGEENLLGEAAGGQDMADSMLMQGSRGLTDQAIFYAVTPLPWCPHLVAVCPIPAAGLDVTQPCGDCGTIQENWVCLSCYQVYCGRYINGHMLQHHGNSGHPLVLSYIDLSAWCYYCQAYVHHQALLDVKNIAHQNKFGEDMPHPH

CCCCCCCC(=O)SCC/C=C/[C@@H]1CC(=O)NCc2nc(cs2)C2=N[C@@](C)(CS2)C(=O)N[C@@H](C(C)C)C(=O)O1 [LARGAZOLE]
IC50 (Histone deacetylase 3): 859 nM
IC50 [1]: 1850 nM
